Assay results as given in paper PMC9613726.
The exact form of at least one protein or probe is not confirmed. For part of these data: A negative result means that nothing was seen under these conditions.

How the values were obtained:
[1] = tested on: GST-CsHDA2 (Camellia sinensis); assay: EMSA; conditions: LightShift Chemiluminescent EMSA Kit (ThermoFisher) per manufacturer; pH and temperature not stated; recombinant protein; protein details: N-terminal GST; label: 3'-biotin
[2] = tested on: GST-CsMYC2 (Camellia sinensis); assay: EMSA; conditions: LightShift Chemiluminescent EMSA Kit (ThermoFisher) per manufacturer, pH and temperature not stated, recombinant protein, protein details: N-terminal GST, label: 3'-biotin

“CTACTTTCATGTGATTCTATGTTCAACTCTCCCAAGCAACATACTTACGAAAATTTTCTTGCCATTTGACAAAATG (double strand) [CsNES promoter E-box probe]”: no binding [1]; binds [2]; binds ([2]; increasing GST-CsHDA2 added, CsMYC2 binding unchanged).
